Assay results published in the supplement of paper PMC6078165.

System: MDAMB231
Assay: relative JC-1 red fluorescence (viability) vs pre-drug, coculture with fibroblast (fraction); higher = more viable cancer cells
Experimental: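 JC-1 labelled TNBC cells cocultured 1:1 (1,500 cells each) with CellTrace Violet stained primary or stromal fibroblasts in 384-well plates in FluoroBrite medium, treated with one of 42 anticancer drugs at 0.1, 1, 10 or 100 uM. JC-1 red fluorescence (mitochondrial integrity in cancer cells only) was read by plate reader every 8 h for 72 h. Values are normalised to each well's pre-drug value. The stock of one drug was tenfold lower, so its dose labels may be too high.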

O=C(O)C(=O)O.[NH-][C@@H]1CCCC[C@H]1[NH-].[Pt+2] [Oxaliplatin]
relative JC-1 red fluorescence
Details | 8 h | 16 h | 24 h | 32 h | 40 h | 48 h | 56 h | 64 h | 72 h
10 µM, coculture fibroblast: C12385 | 0.7509 | 0.73 | 0.617 | 0.615 | 0.544 | 0.506 | 0.4522 | 0.445 | 0.422
10 µM, coculture fibroblast: H6013 | 0.88828 | 0.8198 | 0.784 | 0.771 | 0.738 | 0.716 | 0.707 | 0.688 | 0.651
10 µM, coculture fibroblast: H6019 | 0.77636 | 0.736 | 0.66195 | 0.674 | 0.639 | 0.6227 | 0.578 | 0.5746 | 0.5391
10 µM, coculture fibroblast: H6076 | 0.905 | 0.809 | 0.749 | 0.716 | 0.673 | 0.628 | 0.6 | 0.579 | 0.571
10 µM, coculture fibroblast: H6231 | 0.838 | 0.8709 | 0.7945 | 0.735 | 0.683 | 0.652 | 0.605 | 0.57 | 0.542
10 µM, coculture fibroblast: HADF | 0.886 | 0.8486 | 0.808 | 0.765 | 0.723 | 0.671 | 0.652 | 0.637 | 0.588
10 µM, coculture fibroblast: HCFa | 0.898 | 0.846 | 0.808 | 0.799 | 0.758 | 0.717 | 0.688 | 0.665 | 0.619
10 µM, coculture fibroblast: HCPF | 0.841 | 0.7402 | 0.676 | 0.6362 | 0.588 | 0.537 | 0.504 | 0.4773 | 0.4569
10 µM, coculture fibroblast: HHSteC | 0.9069 | 0.86546 | 0.809 | 0.754 | 0.716 | 0.677 | 0.639 | 0.62 | 0.577
10 µM, coculture fibroblast: HMF | 0.87 | 0.794 | 0.744 | 0.7 | 0.661 | 0.617 | 0.585 | 0.561 | 0.551
10 µM, coculture fibroblast: HPFa | 0.928 | 0.89368 | 0.8299 | 0.7702 | 0.731 | 0.685 | 0.635 | 0.608 | 0.56
10 µM, coculture fibroblast: HUF | 0.851 | 0.748 | 0.704 | 0.616 | 0.5482 | 0.516 | 0.464 | 0.445 | 0.422
10 µM, coculture fibroblast: Hs5 | 0.877 | 0.811 | 0.7721 | 0.735 | 0.69 | 0.638 | 0.605 | 0.575 | 0.559
10 µM, coculture fibroblast: Hs27A | 0.906 | 0.835 | 0.795 | 0.771 | 0.725 | 0.658 | 0.666 | 0.649 | 0.608
10 µM, coculture fibroblast: Hs343T | 0.919 | 0.828 | 0.775 | 0.724 | 0.668 | 0.615 | 0.557 | 0.526 | 0.488
10 µM, coculture fibroblast: WS1 | 0.7597 | 0.721 | 0.609 | 0.599 | 0.5422 | 0.50904 | 0.47 | 0.461 | 0.425
100 µM, coculture fibroblast: C12385 | 0.774 | 0.753 | 0.644 | 0.6435 | 0.578 | 0.535 | 0.487 | 0.4785 | 0.45857
100 µM, coculture fibroblast: H6013 | 0.908 | 0.846 | 0.816 | 0.794 | 0.7523 | 0.707 | 0.681 | 0.662 | 0.615
100 µM, coculture fibroblast: H6019 | 0.775 | 0.698 | 0.655 | 0.628 | 0.586 | 0.562 | 0.506 | 0.482 | 0.444
100 µM, coculture fibroblast: H6076 | 0.88 | 0.826 | 0.79892 | 0.779 | 0.7347 | 0.6868 | 0.651 | 0.639 | 0.619
100 µM, coculture fibroblast: H6231 | 0.9142 | 0.825 | 0.756 | 0.721 | 0.664 | 0.638 | 0.6 | 0.592 | 0.572
100 µM, coculture fibroblast: HADF | 0.9002 | 0.8339 | 0.79 | 0.7651 | 0.727 | 0.679 | 0.66 | 0.65 | 0.604
100 µM, coculture fibroblast: HCFa | 0.939 | 0.887 | 0.867 | 0.837 | 0.79 | 0.737 | 0.719 | 0.693 | 0.641
100 µM, coculture fibroblast: HCPF | 0.876 | 0.772 | 0.724 | 0.709 | 0.65 | 0.613 | 0.581 | 0.553 | 0.536
100 µM, coculture fibroblast: HHSteC | 0.9437 | 0.8908 | 0.86 | 0.826 | 0.773 | 0.732 | 0.689 | 0.669 | 0.626
100 µM, coculture fibroblast: HMF | 0.909 | 0.8441 | 0.8 | 0.76 | 0.719 | 0.67 | 0.636 | 0.6 | 0.574
100 µM, coculture fibroblast: HPFa | 0.9558 | 0.9209 | 0.877 | 0.826 | 0.798 | 0.767 | 0.719 | 0.69 | 0.642
100 µM, coculture fibroblast: HUF | 0.86 | 0.749 | 0.7605 | 0.6663 | 0.607 | 0.592 | 0.5441 | 0.533 | 0.518
100 µM, coculture fibroblast: Hs5 | 0.899 | 0.813 | 0.793 | 0.756 | 0.725 | 0.677 | 0.647 | 0.626 | 0.616
100 µM, coculture fibroblast: Hs27A | 0.908 | 0.873 | 0.823 | 0.7973 | 0.759 | 0.694 | 0.723 | 0.716 | 0.672
100 µM, coculture fibroblast: Hs343T | 0.718 | 0.627 | 0.645 | 0.585 | 0.528 | 0.508 | 0.475 | 0.466 | 0.458
100 µM, coculture fibroblast: WS1 | 0.785 | 0.722 | 0.657 | 0.64 | 0.612 | 0.582 | 0.529 | 0.525 | 0.498

Values are relative to the signal before dosing, not to a vehicle control; the signal also falls without drug.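 Fibroblast labels denote human fibroblasts, mainly primary ones from uterus (C12385, HUF), lung (H6013), bone (Hs27A), adrenal (HADF) and skin (WS1), plus mammary HMF and breast cancer-associated Hs343T. Cancer cells are basal-like or mesenchymal-like triple-negative breast cancer lines. A hit is a response shift exceeding 3x replicate standard deviation. The tissue of the other fibroblasts is not given here.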
